Test results: US9518088B2 (Indiana University Research and Technology Corporation, priority 2011, dated 2016)
Strings that start with PEPTIDE1 are HELM notation: dots part the residues, brackets hold end groups and non-standard residues.

Assay: general procedure: hybrid (solid and solution phase) peptide synthesis; H-Gly-2ClTrt resin (loading 0.4 mmol/g; 0.71 mmol/g); EDC/HOAt (solution couplings); DEPBT/DIPEA; DIC/DMAP or DCC/DMAP for lyso-PC est
Details: late stage modification step

Substance | step yield
PEPTIDE1{[ac].T.G.T.[X4_O_PC].G.Y}$$$$V2.0 | 79%
PEPTIDE1{[ac].T.G.T.[X5_CH2_PC].G.Y}$$$$V2.0 | 73%
